{
  "sequences": {"note": "Sequences of proteins named here, by UniProt entry; tags and fusion partners are left off.", "UniProt P09405": "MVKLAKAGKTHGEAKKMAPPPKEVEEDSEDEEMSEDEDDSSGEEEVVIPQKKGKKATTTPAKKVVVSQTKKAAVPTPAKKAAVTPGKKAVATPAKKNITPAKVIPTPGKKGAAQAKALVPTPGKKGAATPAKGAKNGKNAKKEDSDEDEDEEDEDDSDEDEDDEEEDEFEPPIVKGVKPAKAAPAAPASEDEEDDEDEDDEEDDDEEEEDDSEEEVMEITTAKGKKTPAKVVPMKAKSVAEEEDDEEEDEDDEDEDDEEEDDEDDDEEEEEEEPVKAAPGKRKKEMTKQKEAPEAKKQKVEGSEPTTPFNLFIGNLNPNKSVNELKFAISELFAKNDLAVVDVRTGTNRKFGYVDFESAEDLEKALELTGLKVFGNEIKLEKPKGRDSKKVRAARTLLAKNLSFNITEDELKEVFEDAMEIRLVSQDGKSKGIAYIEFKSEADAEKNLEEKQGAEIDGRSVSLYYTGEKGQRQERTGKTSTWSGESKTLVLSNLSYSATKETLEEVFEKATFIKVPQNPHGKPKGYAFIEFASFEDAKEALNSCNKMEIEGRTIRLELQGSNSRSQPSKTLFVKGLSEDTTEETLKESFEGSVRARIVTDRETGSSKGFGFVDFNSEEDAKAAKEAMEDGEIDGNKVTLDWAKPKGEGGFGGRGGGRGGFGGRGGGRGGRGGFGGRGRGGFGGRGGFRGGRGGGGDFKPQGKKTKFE"},
  "source": "paper PMC12420808",
  "target": "T1, Kin17 (endogenous, mouse) (mouse (endogenous in neurospheres and cortex)) (UniProt Q8K339)",
  "T1 sequence": "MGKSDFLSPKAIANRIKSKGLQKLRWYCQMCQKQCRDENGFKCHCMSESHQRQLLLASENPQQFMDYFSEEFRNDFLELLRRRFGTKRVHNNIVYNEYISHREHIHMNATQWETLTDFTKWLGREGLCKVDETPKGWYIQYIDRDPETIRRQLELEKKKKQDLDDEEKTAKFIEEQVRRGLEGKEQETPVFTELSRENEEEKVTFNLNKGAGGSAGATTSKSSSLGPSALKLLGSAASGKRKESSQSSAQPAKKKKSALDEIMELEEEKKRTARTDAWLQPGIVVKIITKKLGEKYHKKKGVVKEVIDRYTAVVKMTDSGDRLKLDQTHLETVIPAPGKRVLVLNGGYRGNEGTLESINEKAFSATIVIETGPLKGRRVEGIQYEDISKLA",
  "assay": "affinity purification with mass spectrometry; immunoprecipitation of Kin17 from cultured mouse neurospheres; SDS-PAGE, silver staining, bound proteins analysed by mass spectrometry",
  "note": "Results are given in words; binding and its absence hold for the method and conditions named. In cells and extracts the contact can be indirect. These calls come from enrichment with a bait or labelling near it, and not all partners need be listed.",
  "data": [
    {"substance": "Nucleolin (NCL) (endogenous, mouse) (from UniProt P09405 1-707)", "values": [
      {"measurement": "binding", "value": "binds"}
    ]}
  ]
}
